Test: general procedure: solution-phase peptide synthesis

With “Boc-N(CH3)-Ala-Leu-N(CH3)Δ^z Phe-Gly-OMe” as the substance, how does the step yield (coupling step) read?
Its step yield is 88%.

Which step yield (late stage modification step) does the source give for Boc-N(CH3)Ala-Leu-N(CH3)Δ^z Phe-Gly-OMe here?
The step yield was 80%.

Reference: patent US4735651A (The United States of America as represented by the …, priority 1986, dated 1988)
